# Test results published in paper PMC9367985.
# Sequences of proteins named here, by UniProt entry; tags and fusion partners are left off.
# UniProt Q96EP0: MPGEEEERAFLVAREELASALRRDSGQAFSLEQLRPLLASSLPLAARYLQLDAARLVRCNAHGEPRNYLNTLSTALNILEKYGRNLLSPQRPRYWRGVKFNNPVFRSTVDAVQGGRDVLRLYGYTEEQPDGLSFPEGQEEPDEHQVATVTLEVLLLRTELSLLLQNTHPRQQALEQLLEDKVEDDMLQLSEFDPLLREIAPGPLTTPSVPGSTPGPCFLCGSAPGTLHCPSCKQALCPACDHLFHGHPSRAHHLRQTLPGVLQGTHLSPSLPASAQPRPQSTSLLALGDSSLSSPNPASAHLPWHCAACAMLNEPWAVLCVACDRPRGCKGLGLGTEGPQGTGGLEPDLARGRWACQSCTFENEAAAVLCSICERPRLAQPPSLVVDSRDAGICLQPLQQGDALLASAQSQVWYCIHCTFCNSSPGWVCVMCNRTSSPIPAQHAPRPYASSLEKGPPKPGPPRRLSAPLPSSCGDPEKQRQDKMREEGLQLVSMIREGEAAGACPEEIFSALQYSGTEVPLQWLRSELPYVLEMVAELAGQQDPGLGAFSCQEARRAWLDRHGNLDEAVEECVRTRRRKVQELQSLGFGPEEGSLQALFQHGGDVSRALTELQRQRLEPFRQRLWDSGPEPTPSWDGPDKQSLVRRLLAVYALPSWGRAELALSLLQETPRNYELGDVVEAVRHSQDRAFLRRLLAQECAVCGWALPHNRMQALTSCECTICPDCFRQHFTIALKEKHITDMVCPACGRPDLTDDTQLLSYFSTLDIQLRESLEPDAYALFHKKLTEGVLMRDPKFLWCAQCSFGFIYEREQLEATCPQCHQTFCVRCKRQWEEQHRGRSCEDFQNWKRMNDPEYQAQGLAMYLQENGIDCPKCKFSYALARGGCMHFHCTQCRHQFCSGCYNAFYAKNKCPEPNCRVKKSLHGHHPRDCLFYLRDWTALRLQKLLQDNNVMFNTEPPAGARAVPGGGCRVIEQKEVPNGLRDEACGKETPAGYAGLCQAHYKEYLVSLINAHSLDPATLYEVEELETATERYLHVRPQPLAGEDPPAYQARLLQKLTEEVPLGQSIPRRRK
# Results are given in words; binding and its absence hold for the method and conditions named. Binding seen in cells or lysates may run through a third protein. Some results given as binding are weak or reduced against the parent protein; the word gives no strength.
# Target: A315T^247-414-GFP (C-terminally GFP-tagged truncated TDP-43, residues 247-414, with the ALS-associated A315T mutation) (human) (UniProt Q13148)
# Test: co-IP; HEK293T cells transfected with LUBAC subunits and GFP or A315T^247-414-GFP; lysis in 50 mM Tris-HCl pH 7.5, 150 mM NaCl, 1% Triton X-100; anti-GFP immunoprecipitates on Protein G agarose at 4 °C; immunoblotting
row,Substance,binding
1,HOIL-1L expressed alone (FLAG-tagged LUBAC subunit) (from UniProt Q9BYM8-1 1-510),no binding
2,HOIP expressed alone (FLAG-tagged LUBAC subunit) (from UniProt Q96EP0 1-1072),no binding
3,"LUBAC (linear ubiquitin chain assembly complex: HOIP, HOIL-1L and SHARPIN co-expressed) (from UniProt Q96EP0 1-1072; Q9BYM8-1 1-510; Q9H0F6 1-387)",binds
